# Laboratory results: PubChem BioAssay AID1259415 (National Center for Advancing Translational Sciences (NCATS), 2018)
# The whole screen tested about 410,000 compounds, of which about 18,000 (4.4%) were called active. Inconclusive results, whose numbers are uncertain, are shown with a selection of clear calls. No stated cut-off is given here; in the data, active means activity change below about -60%; inconclusive means no clear call, values can overlap the other calls; inactive means above about -39%.
# Assay: qHTS Assay for inhibitors of the human cytomegalovirus (HCMV)
# Settings: HFF cells, HCMV-luciferase reporter, 72 h; at 57.5 µM; stronger effect = lower value
# In short: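 Steps: HFFs plated, 16 h 37C; compounds added; HCMV-luciferase added to MOI 1 PFU/cell; 72 h 37C; OneGlo reagent, 5 min room temperature; luminescence read, normalized to controls.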
# On the % scale 0 is the no-effect control and ±100 the full control effect.
row,SMILES,"activity change, negative = inhibition"
1,Cc1cccc(C(=O)N/N=C2\CS(=O)(=O)N(C)c3ccsc32)c1,inconclusive: -56.5%
2,Cc1cc(NC(=O)CSc2nc3ccsc3c(=O)n2CCCCC(=O)O)no1,inactive: 23.2%
3,CCOc1cc(C2c3c(n[nH]c3C)C(=O)N2c2ccc(C)cc2)ccc1O (stereo not given),active: -80.9%
4,O=C(NNc1nc(-c2ccc(Br)cc2)cs1)c1ccco1,inactive: -10.4%
5,CCSc1ncc(Cl)c(C(=O)Nc2nc3ccc(Cl)cc3s2)n1,inconclusive: -49.1%
6,CN(C)c1cccc(C(=O)Nc2nc3ccc(S(=O)(=O)N4CCCC4)cc3s2)c1,inconclusive: -59.8%
7,Cc1ccc(N(CC(=O)NCC2CCCO2)C(=O)CCC(=O)Nc2nccs2)cc1C (stereo not given),inconclusive: -40.2%
8,O=C1COc2ccc(-c3csc(=Nc4ccc(OC(F)F)cc4)n3CC3CCCO3)cc2N1 (stereo not given),active: -93.6%
9,CC1CCN(S(=O)(=O)c2cccc(-c3csc(-c4cccnc4)n3)c2)CC1,inconclusive: -45.3%
10,O=C1c2cccc3c(N4CCCCC4)ccc(c23)C(=O)N1c1ccccn1,inactive: -4.92%
11,COCCNc1c2c(c(C#N)c3nc4ccccc4n13)CCCC2,inconclusive: -54.8%
12,C[C@H](NC(=O)c1ccco1)C(=O)NCc1cccs1,inconclusive: -46.1%
13,CC1OC(Nc2ccc(N=Nc3ccccc3)cc2)C(O)C(O)C1O (stereo not given),inconclusive: -56.1%
14,O=C1CN(C(=O)NCC(=O)N2CCCC2)c2ccccc2N1,inactive: -31.8%
15,C[C@]12CCC(O)CC1CCC1C2CC[C@]2(C)C(c3cc(C(F)(F)F)n[nH]3)CCC12 (stereo not given in full),inconclusive: -45.4%
16,COc1ccc(NC(=O)CSC2=Nc3ccccc3N=C(c3ccc(F)cc3)C2)cc1OC,active: -102%
17,CCc1nc2c(OCCOc3ccc(F)cc3)cccn2c1N(C=O)Cc1ccc(OC)cc1,inactive: -37%
18,NC(=O)C(=O)N/N=C1\CCc2ccccc21,inactive: -2.77%
19,CCCc1sc(N/N=C/c2ccccn2)nc1-c1ccc(Br)cc1,active: -98.5%
20,O=C(CCc1ccccc1)NCC(c1ccco1)N1CCc2ccccc21 (stereo not given),inconclusive: -44.8%
21,c1ccc2oc(CCc3nc4ccccc4o3)nc2c1,inconclusive: -50.8%
22,CCN(CC)CCCn1c2c(c(SCC(=O)Nc3cc(C)cc(C)c3)nc1=O)CCC2,inactive: 1%
23,CCCn1ncc(CN2CCC(Oc3ccc(C(=O)N4CCCC4)cc3)CC2)c1C,inconclusive: -48.4%
24,Cc1noc(C)c1S(=O)(=O)N1CCCC(C(=O)NCC2CCCO2)C1 (stereo not given),inactive: -13.2%
25,COc1ccc(NC(=O)C2CCN(S(=O)(=O)c3c(C)noc3/C=C/c3ccco3)CC2)cc1,active: -66.8%
26,O=C1C(Cl)=C(NC(=O)c2ccccc2)C(=O)C(Cl)=C1NC(=O)c1ccccc1,inconclusive: -59.9%
27,CC(c1ccco1)N(C(=O)COc1ccc(Cl)cc1)c1ccccn1 (stereo not given),inconclusive: -48.3%
28,O=C(Nc1ccon1)Nc1ccc(F)cc1F,inconclusive: -43.6%

# 2 entries from above, with tabs:
row	SMILES	activity change, negative = inhibition
14	O=C1CN(C(=O)NCC(=O)N2CCCC2)c2ccccc2N1	inactive: -31.8%
15	C[C@]12CCC(O)CC1CCC1C2CC[C@]2(C)C(c3cc(C(F)(F)F)n[nH]3)CCC12 (stereo not given in full)	inconclusive: -45.4%

# (list continues)

row,SMILES,"activity change, negative = inhibition"
1,Cc1cccc(-c2noc(-c3ccc(N4CCCC4)c([N+](=O)[O-])c3)n2)c1,active: -74.2%
2,CCOc1c(/C=C(\C#N)C(N)=O)c2ccccc2n1CC,active: -67.3%
3,CCOC(=O)C1=C(C)NC(=O)NC1c1ccc(N(C)C)cc1 (stereo not given),inconclusive: -42.5%
4,O=C(CCn1nc(-c2ccc(Cl)cc2)ccc1=O)N1CCN(c2ccccc2)CC1,inconclusive: -53.8%
5,O=C(Nc1ccc(F)cc1)c1nc(S(=O)(=O)Cc2ccccc2)ncc1Cl,active: -112%
6,COC(=O)[C@]12CCCCC=C1N(Cc1ccccc1)C(=O)[C@H](CC(=O)NCc1cccs1)C2,active: -65.6%
7,Fc1cccc(CSc2nnc3c(n2)[nH]c2ccccc23)c1,inconclusive: -53.1%
8,CC(NC(=O)c1ccc(F)cc1)C(c1cccs1)N1CCN(C)CC1 (stereo not given),inactive: 29.1%
9,CC(C)C[C@H]1CN([C@@H](Cc2ccccc2)CN2CCC[C@H]2CN2C(=O)C(=O)NC[C@@H]2Cc2ccc(O)cc2)C(=O)C(=O)N1CCc1ccccc1,inactive: -29.9%
10,CCOc1cc(/C=N\NC(=O)c2ccc(C)nc2)ccc1OC(=O)c1ccc(F)cc1,inconclusive: -47.2%
11,O=C(NC1CCCC1)C(c1ccccc1)N(C(=O)c1ccco1)C1CCCC1 (stereo not given),active: -77.7%
12,CCOC(=O)N1CCC(NC(=O)CSCc2nc(-c3ccc(OCC)cc3)oc2C)CC1,inconclusive: -51.5%
13,Cc1ccc(OCC(=O)Nc2cc(C(=O)O)cc(C(=O)O)c2)cc1C,active: -64.5%
14,CCSCCc1nnc(NC(=O)Nc2cccc(C(F)(F)F)c2)s1,active: -83.4%
15,CCCc1cc(=O)[nH]c(SCc2ccccc2Cl)n1,inconclusive: -40.7%
16,COc1cc(/C=N/NC(=O)c2cc3ccccc3[nH]2)ccc1O,inconclusive: -43.9%
17,CC1CCC/C(=N/Nc2ccc([N+](=O)[O-])cc2[N+](=O)[O-])C1 (stereo not given),inconclusive: -40.2%
18,CCOC(=O)c1c(C)[nH]c(C(=O)N2CCc3cc(OC)c(OC)cc3C2)c1C,inactive: 3.22%
19,Cc1cccc(-c2nc3ccccc3c(=O)n2NC(=O)/C=C/c2ccc([N+](=O)[O-])cc2)c1,inconclusive: -51.7%
20,CCOC(=O)C1(Cc2ccc(OC)cc2)CCN(C(=O)CCN2CCCC2=O)CC1,active: -75.8%
21,COc1ccc(NC(=O)c2oc3ccc(S(=O)(=O)N(C)C4CCCCC4)cc3c2C)cc1Cl,active: -77.4%
22,CC(C)(C)n1nnnc1C(c1ccc(Cl)cc1)N(Cc1cccnc1)Cc1ccco1 (stereo not given),inactive: -21.6%
23,C/C(=C\c1ccccc1)C(=O)NCCc1ccccc1,inactive: 25.9%
24,COc1ccccc1-c1cc(C(=O)N/N=C/c2cccs2)c2ccccc2n1,inconclusive: -50.8%
25,O=C(CSc1nc(-c2ccccc2)nc2c1CCCC2)N1CCOCC1,inconclusive: -57.4%
26,CN(O)/C=C/C(=O)c1ccc(Br)cc1,inconclusive: -47%
27,COc1ccc([N+](=O)[O-])cc1NC(=O)CSc1ncccn1,inconclusive: -40.5%
